Test results as given in PMC4659940.
Results are given in words; binding and its absence hold for the method and conditions named. Binding seen in cells or lysates may run through a third protein. Some results given as binding are weak or reduced against the parent protein; the word gives no strength.

Chains of the proteins cited; added tags and fusions are not shown. Residues count along the entry.
UniProt P12023, residues 18-770: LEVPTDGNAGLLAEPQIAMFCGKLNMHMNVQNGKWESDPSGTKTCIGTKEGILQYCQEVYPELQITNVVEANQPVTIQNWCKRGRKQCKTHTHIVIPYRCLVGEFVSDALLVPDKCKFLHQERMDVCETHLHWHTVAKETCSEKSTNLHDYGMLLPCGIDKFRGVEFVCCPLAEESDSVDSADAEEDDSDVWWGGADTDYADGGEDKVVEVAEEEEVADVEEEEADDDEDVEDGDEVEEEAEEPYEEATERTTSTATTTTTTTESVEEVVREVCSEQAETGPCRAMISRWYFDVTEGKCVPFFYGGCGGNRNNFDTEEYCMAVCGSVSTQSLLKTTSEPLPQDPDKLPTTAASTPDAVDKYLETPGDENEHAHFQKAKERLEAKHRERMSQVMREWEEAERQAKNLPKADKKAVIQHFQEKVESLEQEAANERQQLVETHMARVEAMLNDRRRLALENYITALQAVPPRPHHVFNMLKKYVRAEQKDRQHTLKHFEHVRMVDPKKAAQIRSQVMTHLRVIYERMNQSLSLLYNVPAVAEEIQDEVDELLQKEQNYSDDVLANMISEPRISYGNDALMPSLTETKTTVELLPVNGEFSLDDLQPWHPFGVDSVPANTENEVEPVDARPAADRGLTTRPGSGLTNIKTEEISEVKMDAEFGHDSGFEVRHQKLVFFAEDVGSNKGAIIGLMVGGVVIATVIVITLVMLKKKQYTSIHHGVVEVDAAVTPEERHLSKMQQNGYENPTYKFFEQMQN

Biological target: T1, asparagine endopeptidase (AEP), mouse brain (mouse (endogenous in mouse brain)) (UniProt O89017)
T1 sequence: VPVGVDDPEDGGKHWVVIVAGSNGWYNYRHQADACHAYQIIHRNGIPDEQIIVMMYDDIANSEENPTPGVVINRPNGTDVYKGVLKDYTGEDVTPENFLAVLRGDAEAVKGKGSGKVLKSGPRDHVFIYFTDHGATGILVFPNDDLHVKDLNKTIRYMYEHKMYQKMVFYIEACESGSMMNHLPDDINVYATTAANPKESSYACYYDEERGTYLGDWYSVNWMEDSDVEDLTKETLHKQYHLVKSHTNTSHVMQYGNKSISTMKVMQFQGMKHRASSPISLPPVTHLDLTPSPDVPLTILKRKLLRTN
Test: co-IP; WT and 5XFAD mouse brain lysates; anti-AEP antibody and protein A/G-agarose overnight at 4 °C; blot with anti-APP antibody

binding: binds
Substance: amyloid precursor protein (APP), mouse brain (from UniProt P12023 18-770)
